Data published in the supplement of paper PMC12889115.
The list shows a part of the results. Values are raw readings; no control value is given beside them.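 First-pass screen: polymyxin B was added at a level that permeabilizes the Salmonella outer membrane while sparing the inner membrane. DMSO wells, with and without polymyxin B, defined maximum growth. Because plates differed from one another, each plate's data were ranked separately and the compounds with the lowest OD600 were carried forward as hits.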

System: Salmonella enterica serovar Typhimurium SL1344
Assay: bacterial growth OD600 after 18 h with compound and polymyxin B; higher = more bacterial growth (less inhibition)
Conditions: 50 µM, Mueller-Hinton broth

SMILES | bacterial growth OD600 (polymyxin B 0.75 µg/mL) | bacterial growth OD600 (polymyxin B 1 µg/mL)
COc1cc(-c2cnc3ccccc3c2)cc2c1OCCN(S(=O)(=O)c1cc(F)ccc1C)C2 | 0.755 | –
Cc1cccc(CN2CCc3[nH]nc(-c4ccc5c(c4)OCO5)c3C2)n1 | 0.951 | –
O=C1N(CC2CCCCC2)CCCC1(O)CNC1CCC1 (stereo not given) | 0.993 | –
COCc1ccc(C(=O)NCc2cccnc2N(C)C2CCCCC2)o1 | – | 0.756
CCc1ocnc1C(=O)NC1CC(=O)N(CCc2cccc(Cl)c2)C1 (stereo not given) | – | 0.033
COc1ccc(OC)c(-c2nc(CN3CCCC3c3nonc3C)c(C)o2)c1 (stereo not given) | – | 0.976
CC#CCN1C(=O)NC(CCc2ccccc2)(C2CCN(Cc3ccc(CC)o3)CC2)C1=O (stereo not given) | 0.714 | –
Cc1nonc1OCCNC(=O)c1csc2nc(-c3ccccc3)cn12 | – | 1.17
CSc1cccc(CNC(C)c2cnn(-c3ccccc3)c2C)c1 (stereo not given) | 0.769 | –
CCOC(=O)N1CCN(C(=O)c2ccc(N3CCC(NCc4cc(C)no4)CC3)cc2)CC1 | 0.86 | –

A run of entries taken from the entries so far:
SMILES | bacterial growth OD600 (polymyxin B 0.75 µg/mL) | bacterial growth OD600 (polymyxin B 1 µg/mL)
COCc1ccc(C(=O)NCc2cccnc2N(C)C2CCCCC2)o1 | – | 0.756
CCc1ocnc1C(=O)NC1CC(=O)N(CCc2cccc(Cl)c2)C1 (stereo not given) | – | 0.033
